# Results from the supplement of paper PMC8728848.
# The list shows a part of the results.
# B1: OS9-MRH (Homo sapiens), Q13438 (protein)
# chain: IPELLSPMRDAPCLLKTKDWWTYEFCYGRHIQQYHMEDSEIKGEVLYLGYYQSAFDWDDETAKASKQHRLKRYHSQTYGNGSKCDLNGRPREAEVRFLCDEGAGISGDYIDRVDEPLSCSYVLTIRTPRLCPHPLLRPPPSAAPQAI
# Key:
# Assay in all cases: glycan array binding signal (z-score within array); higher = stronger binding
# Details in all cases: glycan notation: IUPAC condensed, linker removed
# [1] = target: Gal(b1-4)GlcNAc(b1-2)[Gal(b1-4)GlcNAc(b1-6)]Man(a1-6)[Gal(b1-4)GlcNAc(b1-2)Man(a1-3)]Man(b1-4)GlcNAc(b1-4)[Fuc(a1-6)]GlcNAc
# Method in brief: (§1)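 The binding signal is a Z-score computed within each array and averaged over linkers. Arrays of the same protein sequence at different concentrations or buffers were also averaged together. Data originate from 3228 arrays in the Consortium for Functional Glycomics database, kept only where the protein sequence was available.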
# [2] = target: Gal(b1-4)GlcNAc(b1-2)[Gal(b1-4)GlcNAc(b1-6)]Man(a1-6)[GlcNAc(b1-4)][Gal(b1-4)GlcNAc(b1-2)Man(a1-3)]Man(b1-4)GlcNAc(b1-4)GlcNAc
# Method in brief: as §1
# [3] = target: Gal(b1-4)GlcNAc(b1-2)[Gal(b1-4)GlcNAc(b1-6)]Man(a1-6)[GlcNAc(b1-4)][Gal(b1-4)GlcNAc(b1-2)[Gal(b1-4)GlcNAc(b1-4)]Man(a1-3)]Man(b1-4)GlcNAc(b1-4)[Fuc(a1-6)]GlcNAc
# Method in brief: as §1
# [4] = target: Gal(b1-4)GlcNAc(b1-3)Gal(b1-3)GalNAc
# Method in brief: as §1
# [5] = target: Gal(b1-4)GlcNAc(b1-3)Gal(b1-3)GlcNAc
# Method in brief: as §1
# [6] = target: Gal(b1-4)GlcNAc(b1-3)Gal(b1-4)Glc
# Method in brief: as §1
# [7] = target: Gal(b1-4)GlcNAc(b1-3)Gal(b1-4)GlcNAc
# Method in brief: as §1
# [8] = target: Gal(b1-4)GlcNAc(b1-3)Gal(b1-4)GlcNAc(b1-2)Man(a1-3)[Gal(b1-4)GlcNAc(b1-3)Gal(b1-4)GlcNAc(b1-2)Man(a1-6)]Man(b1-4)GlcNAc(b1-4)GlcNAc
# Method in brief: as §1
# [9] = target: Gal(b1-4)GlcNAc(b1-3)Gal(b1-4)GlcNAc(b1-2)Man(a1-3)[Gal(b1-4)GlcNAc(b1-3)Gal(b1-4)GlcNAc(b1-2)Man(a1-6)]Man(b1-4)GlcNAc(b1-4)[Fuc(a1-6)]GlcNAc
# Method in brief: as §1
# [10] = target: Gal(b1-4)GlcNAc(b1-3)Gal(b1-4)GlcNAc(b1-2)[Gal(b1-4)GlcNAc(b1-3)Gal(b1-4)GlcNAc(b1-6)]Man(a1-6)[Gal(b1-4)GlcNAc(b1-3)Gal(b1-4)GlcNAc(b1-2)Man(a1-3)]Man(b1-4)GlcNAc(b1-4)GlcNAc
# Method in brief: as §1
# [11] = target: Gal(b1-4)GlcNAc(b1-3)Gal(b1-4)GlcNAc(b1-2)[Gal(b1-4)GlcNAc(b1-3)Gal(b1-4)GlcNAc(b1-6)]Man(a1-6)[Gal(b1-4)GlcNAc(b1-3)Gal(b1-4)GlcNAc(b1-2)Man(a1-3)]Man(b1-4)GlcNAc(b1-4)[Fuc(a1-6)]GlcNAc
# Method in brief: as §1
# [12] = target: Gal(b1-4)GlcNAc(b1-3)Gal(b1-4)GlcNAc(b1-3)Gal(b1-4)GlcNAc
# Method in brief: as §1
# [13] = target: Gal(b1-4)GlcNAc(b1-3)Gal(b1-4)GlcNAc(b1-3)Gal(b1-4)GlcNAc(b1-2)Man(a1-3)[Gal(b1-4)GlcNAc(b1-3)Gal(b1-4)GlcNAc(b1-3)Gal(b1-4)GlcNAc(b1-2)Man(a1-6)]Man(b1-4)GlcNAc(b1-4)GlcNAc
# Method in brief: as §1
# [14] = target: Gal(b1-4)GlcNAc(b1-3)Gal(b1-4)GlcNAc(b1-3)Gal(b1-4)GlcNAc(b1-2)Man(a1-3)[Gal(b1-4)GlcNAc(b1-3)Gal(b1-4)GlcNAc(b1-3)Gal(b1-4)GlcNAc(b1-2)Man(a1-6)]Man(b1-4)GlcNAc(b1-4)[Fuc(a1-6)]GlcNAc
# Method in brief: as §1
# [15] = target: Gal(b1-4)GlcNAc(b1-3)Gal(b1-4)GlcNAc(b1-3)Gal(b1-4)GlcNAc(b1-2)[Gal(b1-4)GlcNAc(b1-3)Gal(b1-4)GlcNAc(b1-3)Gal(b1-4)GlcNAc(b1-6)]Man(a1-6)[Gal(b1-4)GlcNAc(b1-3)Gal(b1-4)GlcNAc(b1-3)Gal(b1-4)GlcNAc(b1-2)Man(a1-3)]Man(b1-4)GlcNAc(b1-4)[Fuc(a1-6)]GlcNAc
# Method in brief: as §1
# [16] = target: Gal(b1-4)GlcNAc(b1-3)Gal(b1-4)GlcNAc(b1-3)Gal(b1-4)GlcNAc(b1-3)Gal(b1-4)GlcNAc(b1-2)Man(a1-3)[Gal(b1-4)GlcNAc(b1-3)Gal(b1-4)GlcNAc(b1-3)Gal(b1-4)GlcNAc(b1-3)Gal(b1-4)GlcNAc(b1-2)Man(a1-6)]Man(b1-4)GlcNAc(b1-4)GlcNAc
# Method in brief: as §1
# [17] = target: Gal(b1-4)GlcNAc(b1-3)Gal(b1-4)GlcNAc(b1-3)Gal(b1-4)GlcNAc(b1-3)Gal(b1-4)GlcNAc(b1-2)Man(a1-3)[Gal(b1-4)GlcNAc(b1-3)Gal(b1-4)GlcNAc(b1-3)Gal(b1-4)GlcNAc(b1-3)Gal(b1-4)GlcNAc(b1-2)Man(a1-6)]Man(b1-4)GlcNAc(b1-4)[Fuc(a1-6)]GlcNAc
# Method in brief: as §1
# [18] = target: Gal(b1-4)GlcNAc(b1-3)Gal(b1-4)GlcNAc(b1-3)Gal(b1-4)GlcNAc(b1-3)Gal(b1-4)GlcNAc(b1-2)[Gal(b1-4)GlcNAc(b1-3)Gal(b1-4)GlcNAc(b1-3)Gal(b1-4)GlcNAc(b1-3)Gal(b1-4)GlcNAc(b1-6)]Man(a1-6)[Gal(b1-4)GlcNAc(b1-3)Gal(b1-4)GlcNAc(b1-3)Gal(b1-4)GlcNAc(b1-3)Gal(b1-4)GlcNAc(b1-2)Man(a1-3)]Man(b1-4)GlcNAc(b1-4)[Fuc(a1-6)]GlcNAc
# Method in brief: as §1
# [19] = target: Gal(b1-4)GlcNAc(b1-3)Gal(b1-4)GlcNAc(b1-3)Gal(b1-4)GlcNAc(b1-3)Gal(b1-4)GlcNAc(b1-3)Gal(b1-4)GlcNAc(b1-2)Man(a1-3)[Gal(b1-4)GlcNAc(b1-3)Gal(b1-4)GlcNAc(b1-3)Gal(b1-4)GlcNAc(b1-3)Gal(b1-4)GlcNAc(b1-3)Gal(b1-4)GlcNAc(b1-2)Man(a1-6)]Man(b1-4)GlcNAc(b1-4)GlcNAc
# Method in brief: as §1
# [20] = target: Gal(b1-4)GlcNAc(b1-3)Gal(b1-4)GlcNAc(b1-3)Gal(b1-4)GlcNAc(b1-3)Gal(b1-4)GlcNAc(b1-3)Gal(b1-4)GlcNAc(b1-2)Man(a1-3)[Gal(b1-4)GlcNAc(b1-3)Gal(b1-4)GlcNAc(b1-3)Gal(b1-4)GlcNAc(b1-3)Gal(b1-4)GlcNAc(b1-3)Gal(b1-4)GlcNAc(b1-2)Man(a1-6)]Man(b1-4)GlcNAc(b1-4)[Fuc(a1-6)]GlcNAc
# Method in brief: as §1
# [21] = target: Gal(b1-4)GlcNAc(b1-3)Gal(b1-4)GlcNAc(b1-3)Gal(b1-4)GlcNAc(b1-3)Gal(b1-4)GlcNAc(b1-3)Gal(b1-4)GlcNAc(b1-2)[Gal(b1-4)GlcNAc(b1-3)Gal(b1-4)GlcNAc(b1-3)Gal(b1-4)GlcNAc(b1-3)Gal(b1-4)GlcNAc(b1-3)Gal(b1-4)GlcNAc(b1-6)]Man(a1-6)[Gal(b1-4)GlcNAc(b1-3)Gal(b1-4)GlcNAc(b1-3)Gal(b1-4)GlcNAc(b1-3)Gal(b1-4)GlcNAc(b1-3)Gal(b1-4)GlcNAc(b1-2)Man(a1-3)]Man(b1-4)GlcNAc(b1-4)[Fuc(a1-6)]GlcNAc
# Method in brief: as §1
# [22] = target: Gal(b1-4)GlcNAc(b1-3)Gal(b1-4)GlcNAc(b1-3)Gal(b1-4)GlcNAc(b1-3)Gal(b1-4)GlcNAc(b1-3)Gal(b1-4)GlcNAc(b1-3)Gal(b1-4)GlcNAc(b1-2)Man(a1-3)[Gal(b1-4)GlcNAc(b1-3)Gal(b1-4)GlcNAc(b1-3)Gal(b1-4)GlcNAc(b1-3)Gal(b1-4)GlcNAc(b1-3)Gal(b1-4)GlcNAc(b1-3)Gal(b1-4)GlcNAc(b1-2)Man(a1-6)]Man(b1-4)GlcNAc(b1-4)GlcNAc
# Method in brief: as §1
# [23] = target: Gal(b1-4)GlcNAc(b1-3)Gal(b1-4)GlcNAc(b1-3)GalNAc
# Method in brief: as §1
binder,measurement,setting,value
B1,glycan array binding signal (z-score),[1],-0.416
same,glycan array binding signal (z-score),[2],-0.598
same,glycan array binding signal (z-score),[3],-0.043
same,glycan array binding signal (z-score),[4],-1.17
same,glycan array binding signal (z-score),[5],-0.568
same,glycan array binding signal (z-score),[6],-0.032
same,glycan array binding signal (z-score),[7],0.016
same,glycan array binding signal (z-score),[8],1.88
same,glycan array binding signal (z-score),[9],1.84
same,glycan array binding signal (z-score),[10],-0.323
same,glycan array binding signal (z-score),[11],2.17
same,glycan array binding signal (z-score),[12],-0.319
same,glycan array binding signal (z-score),[13],0.47
same,glycan array binding signal (z-score),[14],-0.658
same,glycan array binding signal (z-score),[15],-0.74
same,glycan array binding signal (z-score),[16],0.553
same,glycan array binding signal (z-score),[17],-0.755
same,glycan array binding signal (z-score),[18],1.51
same,glycan array binding signal (z-score),[19],2.42
same,glycan array binding signal (z-score),[20],0.001
same,glycan array binding signal (z-score),[21],0.95
same,glycan array binding signal (z-score),[22],0.731
same,glycan array binding signal (z-score),[23],-1.07

# Shown bar-delimited: entries from further up.
binder | measurement | setting | value
B1 | glycan array binding signal (z-score) | [2] | -0.598
same | glycan array binding signal (z-score) | [23] | -1.07
